For at least one compound, name, drawing or mass did not settle the structure.
Test: Chemical recovery of dexamethasone from PGS films with dexamethasone-loaded PLGA fiber meshes after curing
Format: physicochemical
Conditions: electrospun 10:90 PLGA fiber mesh embedded in PGS/MSA mixture

## C[C@@H]1C[C@H]2[C@@H]3CCC4=CC(=O)C=C[C@]4(C)[C@@]3(F)[C@@H](O)C[C@]2(C)[C@@]1(O)C(=O)CO [dexamethasone]
45° C. curing
  dexamethasone recovered after curing treatment: 91.8%
60° C. curing
  dexamethasone recovered after curing treatment: 26.1%

Source: US20120040137A1, “FIBER COMPOSITE STRUCTURE” (Arsenal Medical, priority 2010, published 2012)
